In US20240150457A1:

Target: Recombinant cynomolgus monkey PAR-2 (cynomolgus monkey)
Assay: SPR

binding: binds
B1: P24E1102 (antibody, human IgG4 S228P, kappa, V domains shown)
VH: QVQLVQSGAEVKKPGSSVKVSCKASGFSLSSYAISWVRQAPGQGLEWMGVIWGNQNVYYAQKFQGRVTITADESTSTAYMELSSLRSEDTAVYYCARWKGYKDYPFDYWGQGTLVTVSS
VL: EIVLTQSPATLSLSPGERATLSCRASQNVYKWLDWYQQKPGQAPRLLIYNANTRATGIPARFSGSGSGRDFTLTISSLEPEDFAVYYCQQHHSGWTFGGGTKVEIKR

Results are given in words; binding and its absence hold for the method and conditions named. Binding calls can cover weak binding; strength is not graded here.
